From paper PMC3963859
Results are given in words; binding and its absence hold for the method and conditions named. Binding seen in cells or lysates may run through a third protein. A yes stands for co-enrichment or nearness to the bait. Other partners may have been found. Tags and fused reporters may be left off the sequences shown.

Chains of the proteins cited; added tags and fusions are not shown. Lines headed by an entry give the natural chain unless they say otherwise; changes in a name come on top.
UniProt A0R5R5: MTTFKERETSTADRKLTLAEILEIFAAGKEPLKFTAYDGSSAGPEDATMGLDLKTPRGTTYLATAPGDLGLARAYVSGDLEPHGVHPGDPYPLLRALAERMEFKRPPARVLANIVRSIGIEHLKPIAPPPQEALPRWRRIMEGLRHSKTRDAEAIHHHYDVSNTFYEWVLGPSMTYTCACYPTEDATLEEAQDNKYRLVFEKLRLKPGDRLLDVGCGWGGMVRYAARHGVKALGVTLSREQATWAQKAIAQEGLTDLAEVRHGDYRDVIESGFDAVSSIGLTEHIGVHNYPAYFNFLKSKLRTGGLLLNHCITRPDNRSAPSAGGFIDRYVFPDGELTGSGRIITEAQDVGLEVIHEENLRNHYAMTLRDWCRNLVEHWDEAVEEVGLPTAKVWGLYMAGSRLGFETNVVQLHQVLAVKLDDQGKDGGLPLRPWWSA
UniProt A0R037: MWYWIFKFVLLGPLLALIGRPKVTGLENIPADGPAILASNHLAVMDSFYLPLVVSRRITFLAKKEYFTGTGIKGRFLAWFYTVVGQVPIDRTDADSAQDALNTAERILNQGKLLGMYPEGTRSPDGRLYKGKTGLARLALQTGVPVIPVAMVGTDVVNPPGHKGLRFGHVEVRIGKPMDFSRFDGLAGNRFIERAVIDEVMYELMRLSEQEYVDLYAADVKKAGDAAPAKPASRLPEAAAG
UniProt A0QSH0: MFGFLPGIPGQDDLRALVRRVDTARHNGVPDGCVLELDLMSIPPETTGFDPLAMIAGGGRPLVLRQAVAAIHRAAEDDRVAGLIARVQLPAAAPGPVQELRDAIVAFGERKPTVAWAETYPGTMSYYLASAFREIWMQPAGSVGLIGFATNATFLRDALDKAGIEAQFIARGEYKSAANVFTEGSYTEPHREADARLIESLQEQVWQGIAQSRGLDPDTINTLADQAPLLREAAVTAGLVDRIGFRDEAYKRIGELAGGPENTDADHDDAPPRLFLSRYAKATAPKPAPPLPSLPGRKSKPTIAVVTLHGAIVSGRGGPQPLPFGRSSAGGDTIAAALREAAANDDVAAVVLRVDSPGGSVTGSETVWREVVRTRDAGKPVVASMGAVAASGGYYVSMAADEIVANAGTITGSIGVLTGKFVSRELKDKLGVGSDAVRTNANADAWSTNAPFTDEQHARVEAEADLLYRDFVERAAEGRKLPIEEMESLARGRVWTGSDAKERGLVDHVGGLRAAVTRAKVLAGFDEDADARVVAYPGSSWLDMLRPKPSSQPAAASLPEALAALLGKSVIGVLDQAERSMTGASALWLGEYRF

How the values were obtained:
Experiment in all cases: affinity purification with mass spectrom
[1] = biological target: T1, ribonucleoside-diphosphate reductase, beta subunit (MSMEG_0358), FLAG-tagged (M. smegmatis) (UniProt A0QPD3)
T1 sequence: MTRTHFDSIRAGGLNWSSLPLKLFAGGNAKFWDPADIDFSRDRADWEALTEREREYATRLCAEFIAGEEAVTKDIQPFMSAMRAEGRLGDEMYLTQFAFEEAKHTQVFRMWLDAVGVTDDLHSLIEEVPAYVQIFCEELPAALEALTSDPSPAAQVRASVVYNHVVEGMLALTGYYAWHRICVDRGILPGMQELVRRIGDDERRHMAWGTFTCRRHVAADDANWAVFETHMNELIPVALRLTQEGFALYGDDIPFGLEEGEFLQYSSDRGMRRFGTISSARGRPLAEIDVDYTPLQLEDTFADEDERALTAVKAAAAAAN

[2] = biological target: T2, ribonucleoside-diphosphate reductase, beta subunit (MSMEG_0358), HA-tagged (M. smegmatis) (UniProt A0QPD3)
T2 sequence: T1 sequence

[3] = biological target: T3, ribonucleoside-diphosphate reductase, beta subunit (MSMEG_0358), protein A-tagged (M. smegmatis) (UniProt A0QPD3)
T3 sequence: T1 sequence

[4] = biological target: T4, MSMEG_3085, phosphoglycerate kinase (Pgk), tagged bait (tag not told for this result) (M. smegmatis) (UniProt A0QWW3)
T4 sequence: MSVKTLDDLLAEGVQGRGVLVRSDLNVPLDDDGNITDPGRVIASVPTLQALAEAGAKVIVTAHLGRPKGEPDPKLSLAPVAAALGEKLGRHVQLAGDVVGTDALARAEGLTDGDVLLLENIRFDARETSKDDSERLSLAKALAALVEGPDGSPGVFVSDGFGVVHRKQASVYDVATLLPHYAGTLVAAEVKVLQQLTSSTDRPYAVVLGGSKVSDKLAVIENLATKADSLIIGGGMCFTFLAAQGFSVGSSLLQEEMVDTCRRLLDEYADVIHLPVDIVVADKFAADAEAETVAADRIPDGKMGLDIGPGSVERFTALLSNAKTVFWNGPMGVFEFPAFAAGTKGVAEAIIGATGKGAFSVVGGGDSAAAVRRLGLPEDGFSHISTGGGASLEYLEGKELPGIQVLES

Row | Substance | binding [1] | binding [2] | binding [3] | binding [4]
1 | MSMEG_6284, a cyclopropane-fatty-acyl-phospholipid synthase (from UniProt A0R5R5) (enzyme) | binds | binds | binds | –
2 | MSMEG_4248, a 1-acylglycerol-3-phosphate O-acyltransferase (from UniProt A0R037) (enzyme) | – | – | – | binds
3 | MSMEG_1476, a signal peptide peptidase (from UniProt A0QSH0) | binds | binds | binds | –
